Source: paper PMC7318222, “A Family of Water‐Immiscible, Dipolar Aprotic, Diamide Solvents from Succinic Acid” (Chemsuschem, 2020)

Experiments:
Miscibility with water = type: physicochemical; details: this work
Miscibility with hexane = type: physicochemical; details: this work

Compound: CC(=O)N(C)C [DMAc, N,N‐dimethylacetamide]
- Water misc. (Miscibility with water): yes^[a]
- Hexane misc. (Miscibility with hexane): no^[a]
